The term IC50 denotes the concentration needed to halve the response being measured.

Results on two compounds are retold here after ChEMBL document CHEMBL4303087, “Broad anti-coronaviral activity of FDA approved drugs against SARS-CoV-2 in vitro and SARS-CoV in vivo” (2020).

Each structure is given as a SMILES string. Counter-ions that a name gives are not always drawn.

For assay [1], the system named is SARS-CoV-2. The assay is described as follows: microbe, parasite or virus in culture. In kind it is functional, organism-based, Chlorocebus sabaeus. As to conditions: Severe acute respiratory syndrome coronavirus 2, Vero C1008, 72 h.
For assay [2], the system named is SARS-CoV-2. The assay is described as follows: microbe, parasite or virus in culture. As to conditions: Severe acute respiratory syndrome coronavirus 2, Vero C1008, 72 h. In kind it is functional, organism-based, Chlorocebus sabaeus. This is another data set of the same source.

With `OCCN1CCN(CCCN2c3ccccc3Sc3ccc(C(F)(F)F)cc32)CC1` [FLUPHENAZINE HYDROCHLORIDE], the IC50 in the assay with SARS-CoV-2 [1] was 8.98 µM; with SARS-CoV-2 [2], 6.36 µM.
For the compound `CN(C)CCCN1c2ccccc2CCc2ccc(Cl)cc21` [CLOMIPRAMINE HYDROCHLORIDE], the half-maximal inhibitory concentration (IC50) in the assay on SARS-CoV-2 [1] was 7.59 µM; with SARS-CoV-2 [2], 5.63 µM.
